# Measurements taken from paper PMC9737857.
# The chains behind the UniProt entries cited, without tags or fusion partners.
# UniProt Q8NDV7: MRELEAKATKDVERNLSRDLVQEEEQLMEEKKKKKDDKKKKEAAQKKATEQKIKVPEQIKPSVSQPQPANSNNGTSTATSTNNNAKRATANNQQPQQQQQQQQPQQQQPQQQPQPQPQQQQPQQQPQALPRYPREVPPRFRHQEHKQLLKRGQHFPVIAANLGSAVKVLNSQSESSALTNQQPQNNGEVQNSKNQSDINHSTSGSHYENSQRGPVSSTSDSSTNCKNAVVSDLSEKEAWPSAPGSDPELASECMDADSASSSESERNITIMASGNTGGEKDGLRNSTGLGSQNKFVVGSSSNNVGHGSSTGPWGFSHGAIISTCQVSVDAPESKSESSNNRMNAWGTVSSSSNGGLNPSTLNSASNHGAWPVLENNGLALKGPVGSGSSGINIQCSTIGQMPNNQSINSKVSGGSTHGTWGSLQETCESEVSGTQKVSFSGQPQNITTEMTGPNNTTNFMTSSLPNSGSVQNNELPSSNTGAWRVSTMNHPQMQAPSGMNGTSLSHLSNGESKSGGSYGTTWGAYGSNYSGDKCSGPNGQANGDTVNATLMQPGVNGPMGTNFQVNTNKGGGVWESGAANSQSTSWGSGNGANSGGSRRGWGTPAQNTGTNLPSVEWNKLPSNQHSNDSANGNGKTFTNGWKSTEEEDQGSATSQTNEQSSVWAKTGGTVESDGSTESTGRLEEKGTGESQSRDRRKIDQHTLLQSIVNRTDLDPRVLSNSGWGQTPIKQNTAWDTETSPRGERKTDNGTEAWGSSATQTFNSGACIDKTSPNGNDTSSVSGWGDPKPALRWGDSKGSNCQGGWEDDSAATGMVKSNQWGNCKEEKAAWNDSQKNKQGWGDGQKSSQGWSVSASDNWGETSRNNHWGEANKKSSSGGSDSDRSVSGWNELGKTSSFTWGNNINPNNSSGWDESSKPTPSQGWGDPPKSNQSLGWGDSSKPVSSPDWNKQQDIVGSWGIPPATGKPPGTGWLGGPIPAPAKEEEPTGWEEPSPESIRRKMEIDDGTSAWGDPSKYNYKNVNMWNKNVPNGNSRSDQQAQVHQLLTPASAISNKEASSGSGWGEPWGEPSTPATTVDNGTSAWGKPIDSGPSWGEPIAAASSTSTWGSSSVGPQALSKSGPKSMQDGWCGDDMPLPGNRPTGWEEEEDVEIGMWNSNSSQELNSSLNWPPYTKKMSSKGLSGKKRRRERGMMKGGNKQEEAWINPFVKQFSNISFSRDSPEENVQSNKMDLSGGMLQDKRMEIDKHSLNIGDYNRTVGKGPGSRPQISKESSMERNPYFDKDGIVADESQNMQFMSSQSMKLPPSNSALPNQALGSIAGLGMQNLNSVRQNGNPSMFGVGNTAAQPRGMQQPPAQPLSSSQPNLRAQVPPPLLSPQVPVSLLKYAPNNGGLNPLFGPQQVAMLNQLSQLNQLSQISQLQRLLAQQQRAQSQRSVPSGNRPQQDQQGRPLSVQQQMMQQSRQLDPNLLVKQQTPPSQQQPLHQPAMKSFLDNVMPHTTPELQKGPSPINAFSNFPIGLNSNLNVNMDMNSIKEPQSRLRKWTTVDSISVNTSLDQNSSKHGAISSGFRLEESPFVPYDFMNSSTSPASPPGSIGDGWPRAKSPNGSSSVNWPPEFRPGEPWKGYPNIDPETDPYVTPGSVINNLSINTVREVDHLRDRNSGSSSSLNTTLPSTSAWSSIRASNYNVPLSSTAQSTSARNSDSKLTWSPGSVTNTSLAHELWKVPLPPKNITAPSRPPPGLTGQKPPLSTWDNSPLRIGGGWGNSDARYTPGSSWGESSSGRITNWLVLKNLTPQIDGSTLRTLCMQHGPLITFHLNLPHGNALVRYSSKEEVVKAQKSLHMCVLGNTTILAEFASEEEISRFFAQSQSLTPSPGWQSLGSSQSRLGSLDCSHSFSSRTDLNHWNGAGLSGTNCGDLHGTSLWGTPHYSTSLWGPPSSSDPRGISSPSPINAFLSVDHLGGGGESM
# UniProt Q9UKV8: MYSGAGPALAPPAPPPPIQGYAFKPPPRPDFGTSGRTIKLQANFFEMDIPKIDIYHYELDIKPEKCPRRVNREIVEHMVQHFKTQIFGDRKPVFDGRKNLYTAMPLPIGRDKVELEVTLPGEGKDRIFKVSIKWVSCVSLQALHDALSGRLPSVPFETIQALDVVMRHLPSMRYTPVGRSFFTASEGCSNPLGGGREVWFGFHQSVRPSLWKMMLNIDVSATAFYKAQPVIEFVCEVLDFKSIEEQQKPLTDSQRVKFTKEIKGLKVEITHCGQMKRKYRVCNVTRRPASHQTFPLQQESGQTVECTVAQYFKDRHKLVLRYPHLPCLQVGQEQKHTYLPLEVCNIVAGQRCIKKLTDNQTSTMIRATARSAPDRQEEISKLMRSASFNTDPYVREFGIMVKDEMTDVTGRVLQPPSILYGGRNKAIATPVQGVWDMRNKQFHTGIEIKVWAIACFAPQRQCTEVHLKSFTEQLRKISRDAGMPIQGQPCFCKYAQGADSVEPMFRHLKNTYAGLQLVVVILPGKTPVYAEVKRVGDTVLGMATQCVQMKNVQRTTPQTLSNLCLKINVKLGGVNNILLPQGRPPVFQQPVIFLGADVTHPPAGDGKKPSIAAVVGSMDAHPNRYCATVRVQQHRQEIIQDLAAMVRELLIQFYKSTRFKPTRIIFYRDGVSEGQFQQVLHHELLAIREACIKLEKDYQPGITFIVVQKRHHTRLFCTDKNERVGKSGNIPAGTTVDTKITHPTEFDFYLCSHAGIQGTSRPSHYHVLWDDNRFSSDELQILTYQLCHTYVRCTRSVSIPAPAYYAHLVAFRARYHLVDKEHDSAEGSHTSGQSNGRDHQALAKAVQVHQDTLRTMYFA
# No constants are given. Whether binding was seen depends on the method and setting. Binding seen in cells or lysates may run through a third protein. Some results given as binding are weak or reduced against the parent protein; the word gives no strength.
# T1: p120 catenin (human (endogenous in Caco2)) (UniProt O60716)
# T1 sequence: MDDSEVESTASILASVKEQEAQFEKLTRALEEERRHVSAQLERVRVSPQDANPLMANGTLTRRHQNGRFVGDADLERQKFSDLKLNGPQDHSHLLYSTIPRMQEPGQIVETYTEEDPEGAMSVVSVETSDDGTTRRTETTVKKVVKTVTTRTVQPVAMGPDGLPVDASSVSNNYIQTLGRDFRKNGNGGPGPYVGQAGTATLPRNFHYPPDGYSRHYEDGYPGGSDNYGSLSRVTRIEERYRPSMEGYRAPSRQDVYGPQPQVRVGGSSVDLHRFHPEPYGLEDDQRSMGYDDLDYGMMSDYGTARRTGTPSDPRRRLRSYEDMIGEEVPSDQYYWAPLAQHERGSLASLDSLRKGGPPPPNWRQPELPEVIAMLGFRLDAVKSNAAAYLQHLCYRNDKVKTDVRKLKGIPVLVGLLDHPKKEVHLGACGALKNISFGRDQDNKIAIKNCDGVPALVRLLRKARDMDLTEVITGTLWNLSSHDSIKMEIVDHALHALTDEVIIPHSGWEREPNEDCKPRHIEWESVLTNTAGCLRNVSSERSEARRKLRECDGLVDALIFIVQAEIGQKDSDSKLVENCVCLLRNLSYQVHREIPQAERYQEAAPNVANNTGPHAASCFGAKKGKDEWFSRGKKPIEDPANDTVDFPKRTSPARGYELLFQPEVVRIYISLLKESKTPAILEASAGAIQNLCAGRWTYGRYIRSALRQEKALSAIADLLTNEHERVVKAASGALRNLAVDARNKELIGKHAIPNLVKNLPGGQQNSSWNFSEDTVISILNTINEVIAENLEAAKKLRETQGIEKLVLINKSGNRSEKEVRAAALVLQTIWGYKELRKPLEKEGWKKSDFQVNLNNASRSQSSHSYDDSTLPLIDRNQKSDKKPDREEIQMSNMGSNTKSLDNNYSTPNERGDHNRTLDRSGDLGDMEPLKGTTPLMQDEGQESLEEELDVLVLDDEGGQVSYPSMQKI
# Experiments:
# [1] = target: GW182 (Glycine-Tryptophan Protein Of 182 KDa) (human (endogenous in Caco2)) (UniProt Q8NDV7); test: proximity ligation; Duolink PLA on confluent, fixed Caco2 cells plated on laminin, fibronectin, collagen I or collagen IV; pairs of primary antibodies to the endogenous proteins; counterstained for E-cadherin; signals counted at junctions, in cytoplasm and nucleus
# [2] = target: T1, p120 catenin (human (endogenous in Caco2)); test: as above
Molecule,binding [1],binding [2]
Argonaute 2 (AGO2) (from UniProt Q9UKV8 1-859),binds,–
"PLEKHA7 (Pleckstrin homology domain-containing family A member 7) (protein, UniProt Q6IQ23 1-1121) MAAATVGRDTLPEHWSYGVCRDGRVFFINDQLRCTTWLHPRTGEPVNSGHMIRSDLPRGWEEGFTEEGASYFIDHNQQTTAFRHPVTGQFSPENSEFILQEEPNPHMSKQDRNQRPSSMVSETSTAGTASTLEAKPGPKIIKSSSKVHSFGKRDQAIRRNPNVPVVVRGWLHKQDSSGMRLWKRRWFVLADYCLFYYKDSREEAVLGSIPLPSYVISPVAPEDRISRKYSFKAVHTGMRALIYNSSTAGSQAEQSGMRTYYFSADTQEDMNAWVRAMNQAAQVLSRSSLKRDMEKVERQAVPQANHTESCHECGRVGPGHTRDCPHRGHDDIVNFERQEQEGEQYRSQRDPLEGKRDRSKARSPYSPAEEDALFMDLPTGPRGQQAQPQRAEKNGMLPASYGPGEQNGTGGYQRAFPPRTNPEKHSQRKSNLAQVEHWARAQKGDSRSLPLDQTLPRQGPGQSLSFPENYQTLPKSTRHPSGGSSPPPRNLPSDYKYAQDRASHLKMSSEERRAHRDGTVWQLYEWQQRQQFRHGSPTAPICLGSPEFTDQGRSRSMLEVPRSISVPPSPSDIPPPGPPRVFPPRRPHTPAERVTVKPPDQRRSVDISLGDSPRRARGHAVKNSSHVDRRSMPSMGYMTHTVSAPSLHGKSADDTYLQLKKDLEYLDLKMTGRDLLKDRSLKPVKIAESDTDVKLSIFCEQDRVLQDLEDKIRALKENKDQLESVLEVLHRQMEQYRDQPQHLEKIAYQQKLLQEDLVHIRAELSRESTEMENAWNEYLKLENDVEQLKQTLQEQHRRAFFFQEKSQIQKDLWRIEDVTAGLSANKENFRILVESVKNPERKTVPLFPHPPVPSLSTSESKPPPQPSPPTSPVRTPLEVRLFPQLQTYVPYRPHPPQLRKVTSPLQSPTKAKPKVEDEAPPRPPLPELYSPEDQPPAVPPLPREATIIRHTSVRGLKRQSDERKRDRELGQCVNGDSRVELRSYVSEPELATLSGDMAQPSLGLVGPESRYQTLPGRGLSGSTSRLQQSSTIAPYVTLRRGLNAESSKATFPRPKSALERLYSGDHQRGKMSAEEQLERMKRHQKALVRERKRTLGQGERTGLPSSRYLSRPLPGDLGSVC",–,binds
